Measured values as given in publication PMC8001324.
These are yes or no findings as the source states them, for the method shown. Binding seen in cells or lysates may run through a third protein. Some entries that bind do so weakly or less than the wild type.

Experiments:
[1] = target: tumor suppressor p53, Myc-tagged (UniProt P04637); assay: co-IP; cells cotransfected with myc-p53 and His-PER1, harvested 24 h after transfection, lysed in RIPA buffer; lysate incubated overnight at 4 °C with anti-myc or anti-His antibody, then 2 h with protein G- or protein A-Sepharose; Western blot with anti-His and anti-myc
[2] = target: period 1 (PER1), His-tagged (mouse (mPer1)) (UniProt O35973); assay: as above

| binding [1] | binding [2] | Substance |
| --- | --- | --- |
| binds |  | period 1 (PER1), His-tagged (from UniProt O35973 1-1291) |
|  | binds | tumor suppressor p53, Myc-tagged (from UniProt P04637 1-393) |
